# The supplement of paper PMC8728848
# The other results are listed elsewhere or left out.
# B1: PX9961KLbvu-535-38-535 (Bacteroides vulgatus) (protein)
# chain: DKAYTDAESYTKGLHKIYSVWALSGQDGSSSSDISGLDAGNTALLRCWWTLQEQPTDEMKNAWNDAWCTEVNYMTWTTNKVEPIEGVYQRCMYIVALVNEFLKNIPNAPESIDKESYIAQARFNRAFAYYVLMDMFALPPFITEKNYSIEPAPLSREDLFNWIEAELNEIKPNLPSPRSEYGVADQAVASALLARMYLNAEIYTGKARYTECINACNEVIKAGYQLADNYADLFKADNGENPDTKKEIIYPIIFDGDKTQSWGMAAIIIGARGAEDKDVLLAHSGVDQGWAGFRATSNLVHLFDFQNDEEPKASEIQDKRGIFYDKGRSIDITSSVSGTFETEGWSVFKFSNLNSNGQPGKNTLWVDTDFPMFRLGDIYLMYAEAVARGGEGSKASAVEYINALRKRAYGDDKHNISENWLEENNFRNLLDERGRELYWEGIRRTDLVRFDLLTSGSYTWDFKGGINTGVGVNKRYNVYPIPVTDLTVNGNLQQNEGY
# Legend:
# Assay in all cases: glycan array binding signal (z-score within array); higher = stronger binding
# Conditions in all cases: glycan notation: IUPAC condensed, linker removed
# [1] = target: Fuc(a1-3)[Gal3S(b1-4)]GlcNAc6S
# How it was run: (§1)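 Arrays were curated from the Consortium for Functional Glycomics database, 3228 in total, and kept only where the protein sequence was available. Binding is expressed as a within-array Z-score. This score was averaged across arrays of the same protein sequence at different concentrations or buffers and across linkers, and negative values can be read as non-binding.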
# [2] = target: Fuc(a1-3)[GalNAc(b1-4)]GlcNAc
# How it was run: as §1
# [3] = target: Fuc(a1-3)[GalNAc(b1-4)]GlcNAc6S
# How it was run: as §1
# Fuc(a1-4)GlcNAc = target: Fuc(a1-4)GlcNAc
# How it was run: as §1
# Fuc(b1-3)GlcNAc = target: Fuc(b1-3)GlcNAc
# How it was run: as §1
# Gal(a1-2)Gal = target: Gal(a1-2)Gal
# How it was run: as §1
# Gal(a1-3)Gal = target: Gal(a1-3)Gal
# How it was run: as §1
# Gal(a1-3)Gal(b1-3)GlcNAc = target: Gal(a1-3)Gal(b1-3)GlcNAc
# How it was run: as §1
# [4] = target: Gal(a1-3)Gal(b1-3)GlcNAc(b1-2)Man
# How it was run: as §1
# [5] = target: Gal(a1-3)Gal(b1-3)GlcNAc(b1-2)Man(a1-3)[Gal(a1-3)Gal(b1-3)GlcNAc(b1-2)Man(a1-6)]Man(b1-4)GlcNAc(b1-4)GlcNAc
# How it was run: as §1
# [6] = target: Gal(a1-3)Gal(b1-3)GlcNAc(b1-3)GalNAc
# How it was run: as §1
# [7] = target: Gal(a1-3)Gal(b1-3)GlcNAc(b1-6)GalNAc
# How it was run: as §1
# [8] = target: Gal(a1-3)Gal(b1-3)[Fuc(a1-4)]GlcNAc(b1-2)Man(a1-3)[Gal(a1-3)Gal(b1-3)[Fuc(a1-4)]GlcNAc(b1-2)Man(a1-6)]Man(b1-4)GlcNAc(b1-4)GlcNAc
# How it was run: as §1
# Gal(a1-3)Gal(b1-4)Glc = target: Gal(a1-3)Gal(b1-4)Glc
# How it was run: as §1
# Gal(a1-3)Gal(b1-4)GlcNAc = target: Gal(a1-3)Gal(b1-4)GlcNAc
# How it was run: as §1
# [9] = target: Gal(a1-3)Gal(b1-4)GlcNAc(b1-2)Man
# How it was run: as §1
# [10] = target: Gal(a1-3)Gal(b1-4)GlcNAc(b1-2)Man(a1-3)[Gal(a1-3)Gal(b1-4)GlcNAc(b1-2)Man(a1-6)]Man(b1-4)GlcNAc(b1-4)GlcNAc
# How it was run: as §1
# [11] = target: Gal(a1-3)Gal(b1-4)GlcNAc(b1-3)GalNAc
# How it was run: as §1
# [12] = target: Gal(a1-3)Gal(b1-4)GlcNAc(b1-6)GalNAc
# How it was run: as §1
# [13] = target: Gal(a1-3)Gal(b1-4)[Fuc(a1-3)]GlcNAc
# How it was run: as §1
# [14] = target: Gal(a1-3)Gal(b1-4)[Fuc(a1-3)]GlcNAc(b1-2)Man(a1-3)[Gal(a1-3)Gal(b1-4)[Fuc(a1-3)]GlcNAc(b1-2)Man(a1-6)]Man(b1-4)GlcNAc(b1-4)GlcNAc
# How it was run: as §1
# Gal(a1-3)GalNAc = target: Gal(a1-3)GalNAc
# How it was run: as §1
# [15] = target: Gal(a1-3)[Gal(a1-4)]Gal(b1-4)GlcNAc
# How it was run: as §1
# [16] = target: Gal(a1-4)Gal(b1-3)GlcNAc(b1-2)Man(a1-3)[Gal(a1-4)Gal(b1-3)GlcNAc(b1-2)Man(a1-6)]Man(b1-4)GlcNAc(b1-4)GlcNAc
# How it was run: as §1
# Gal(a1-4)Gal(b1-4)Glc = target: Gal(a1-4)Gal(b1-4)Glc
# How it was run: as §1
# Gal(a1-4)Gal(b1-4)GlcNAc = target: Gal(a1-4)Gal(b1-4)GlcNAc
# How it was run: as §1
# [17] = target: Gal(a1-4)Gal(b1-4)GlcNAc(b1-2)Man(a1-3)[Gal(a1-4)Gal(b1-4)GlcNAc(b1-2)Man(a1-6)]Man(b1-4)GlcNAc(b1-4)GlcNAc
# How it was run: as §1
# [18] = target: Gal(a1-4)Gal(b1-4)GlcNAc(b1-3)Gal(b1-4)Glc
# How it was run: as §1
# Gal(a1-4)GlcNAc = target: Gal(a1-4)GlcNAc
# How it was run: as §1
# Gal(a1-6)Glc = target: Gal(a1-6)Glc
# How it was run: as §1
# Gal(b1-2)Gal = target: Gal(b1-2)Gal
# How it was run: as §1
# Gal(b1-3)Gal = target: Gal(b1-3)Gal
# How it was run: as §1
# Gal(b1-3)Gal(b1-4)GlcNAc = target: Gal(b1-3)Gal(b1-4)GlcNAc
# How it was run: as §1
# Gal(b1-3)GalNAc = target: Gal(b1-3)GalNAc
# How it was run: as §1
# [19] = target: Gal(b1-3)GalNAc(a1-3)[Fuc(a1-2)]Gal(b1-4)Glc
# How it was run: as §1
# [20] = target: Gal(b1-3)GalNAc(a1-3)[Fuc(a1-2)]Gal(b1-4)GlcNAc
# How it was run: as §1
# Gal(b1-3)GalNAc(b1-3)Gal = target: Gal(b1-3)GalNAc(b1-3)Gal
# How it was run: as §1
# [21] = target: Gal(b1-3)GalNAc(b1-3)Gal(a1-4)Gal(b1-4)Glc
# How it was run: as §1
# [22] = target: Gal(b1-3)GalNAc(b1-4)Gal(b1-4)Glc
# How it was run: as §1
# [23] = target: Gal(b1-3)GalNAc(b1-4)[Neu5Ac(a2-3)]Gal(b1-4)Glc
# How it was run: as §1
# Gal(b1-3)GlcNAc = target: Gal(b1-3)GlcNAc
# How it was run: as §1
# [24] = target: Gal(b1-3)GlcNAc(a1-3)Gal(b1-4)GlcNAc
# How it was run: as §1
# [25] = target: Gal(b1-3)GlcNAc(a1-6)Gal(b1-4)GlcNAc
# How it was run: as §1
# Gal(b1-3)GlcNAc(b1-2)Man = target: Gal(b1-3)GlcNAc(b1-2)Man
# How it was run: as §1
# [26] = target: Gal(b1-3)GlcNAc(b1-2)Man(a1-3)[Gal(b1-3)GlcNAc(b1-2)Man(a1-6)]Man(b1-4)GlcNAc(b1-4)GlcNAc
# How it was run: as §1
binder,measurement,setting,value
B1,glycan array binding signal (z-score),[1],-0.054
same,glycan array binding signal (z-score),[2],1.1
same,glycan array binding signal (z-score),[3],0.664
same,glycan array binding signal (z-score),Fuc(a1-4)GlcNAc,-0.779
same,glycan array binding signal (z-score),Fuc(b1-3)GlcNAc,-0.297
same,glycan array binding signal (z-score),Gal(a1-2)Gal,-0.938
same,glycan array binding signal (z-score),Gal(a1-3)Gal,0.561
same,glycan array binding signal (z-score),Gal(a1-3)Gal(b1-3)GlcNAc,-0.994
same,glycan array binding signal (z-score),[4],0.168
same,glycan array binding signal (z-score),[5],-0.04
same,glycan array binding signal (z-score),[6],-0.627
same,glycan array binding signal (z-score),[7],-0.115
same,glycan array binding signal (z-score),[8],0.002
same,glycan array binding signal (z-score),Gal(a1-3)Gal(b1-4)Glc,-0.366
same,glycan array binding signal (z-score),Gal(a1-3)Gal(b1-4)GlcNAc,0.253
same,glycan array binding signal (z-score),[9],-0.783
same,glycan array binding signal (z-score),[10],-0.391
same,glycan array binding signal (z-score),[11],-0.043
same,glycan array binding signal (z-score),[12],-0.32
same,glycan array binding signal (z-score),[13],-0.356
same,glycan array binding signal (z-score),[14],0.534
same,glycan array binding signal (z-score),Gal(a1-3)GalNAc,0.046
same,glycan array binding signal (z-score),[15],2.6
same,glycan array binding signal (z-score),[16],-0.732
same,glycan array binding signal (z-score),Gal(a1-4)Gal(b1-4)Glc,-0.25
same,glycan array binding signal (z-score),Gal(a1-4)Gal(b1-4)GlcNAc,0.822
same,glycan array binding signal (z-score),[17],2.35
same,glycan array binding signal (z-score),[18],-1.13
same,glycan array binding signal (z-score),Gal(a1-4)GlcNAc,-0.431
same,glycan array binding signal (z-score),Gal(a1-6)Glc,-0.209
same,glycan array binding signal (z-score),Gal(b1-2)Gal,-0.992
same,glycan array binding signal (z-score),Gal(b1-3)Gal,-0.645
same,glycan array binding signal (z-score),Gal(b1-3)Gal(b1-4)GlcNAc,-0.566
same,glycan array binding signal (z-score),Gal(b1-3)GalNAc,0.204
same,glycan array binding signal (z-score),[19],-0.523
same,glycan array binding signal (z-score),[20],-0.06
same,glycan array binding signal (z-score),Gal(b1-3)GalNAc(b1-3)Gal,-0.509
same,glycan array binding signal (z-score),[21],-0.296
same,glycan array binding signal (z-score),[22],-0.601
same,glycan array binding signal (z-score),[23],0.015
same,glycan array binding signal (z-score),Gal(b1-3)GlcNAc,-0.238
same,glycan array binding signal (z-score),[24],-0.489
same,glycan array binding signal (z-score),[25],0.231
same,glycan array binding signal (z-score),Gal(b1-3)GlcNAc(b1-2)Man,-0.003
same,glycan array binding signal (z-score),[26],0.979

# Reformatted: entries from further up.
binder | measurement | setting | value
B1 | glycan array binding signal (z-score) | Gal(a1-3)Gal(b1-3)GlcNAc | -0.994
same | glycan array binding signal (z-score) | [4] | 0.168
same | glycan array binding signal (z-score) | [5] | -0.04
same | glycan array binding signal (z-score) | [6] | -0.627
same | glycan array binding signal (z-score) | [7] | -0.115
same | glycan array binding signal (z-score) | [8] | 0.002
same | glycan array binding signal (z-score) | Gal(a1-3)Gal(b1-4)Glc | -0.366
same | glycan array binding signal (z-score) | Gal(a1-3)Gal(b1-4)GlcNAc | 0.253
